# Source: the supplement of paper PMC6411743
# The chains behind the UniProt entries cited, without tags or fusion partners. Where a name states a change or a piece, a line headed by the entry shows the natural chain unless it says otherwise.
# UniProt Q9HBH1: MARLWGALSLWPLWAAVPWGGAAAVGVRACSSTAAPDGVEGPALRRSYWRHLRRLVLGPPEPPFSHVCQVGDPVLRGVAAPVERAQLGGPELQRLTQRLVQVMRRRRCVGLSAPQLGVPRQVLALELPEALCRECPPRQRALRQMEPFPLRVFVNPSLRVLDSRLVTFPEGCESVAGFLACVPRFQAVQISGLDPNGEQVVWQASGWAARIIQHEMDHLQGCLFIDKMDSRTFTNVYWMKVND
# UniProt Q9H6R0: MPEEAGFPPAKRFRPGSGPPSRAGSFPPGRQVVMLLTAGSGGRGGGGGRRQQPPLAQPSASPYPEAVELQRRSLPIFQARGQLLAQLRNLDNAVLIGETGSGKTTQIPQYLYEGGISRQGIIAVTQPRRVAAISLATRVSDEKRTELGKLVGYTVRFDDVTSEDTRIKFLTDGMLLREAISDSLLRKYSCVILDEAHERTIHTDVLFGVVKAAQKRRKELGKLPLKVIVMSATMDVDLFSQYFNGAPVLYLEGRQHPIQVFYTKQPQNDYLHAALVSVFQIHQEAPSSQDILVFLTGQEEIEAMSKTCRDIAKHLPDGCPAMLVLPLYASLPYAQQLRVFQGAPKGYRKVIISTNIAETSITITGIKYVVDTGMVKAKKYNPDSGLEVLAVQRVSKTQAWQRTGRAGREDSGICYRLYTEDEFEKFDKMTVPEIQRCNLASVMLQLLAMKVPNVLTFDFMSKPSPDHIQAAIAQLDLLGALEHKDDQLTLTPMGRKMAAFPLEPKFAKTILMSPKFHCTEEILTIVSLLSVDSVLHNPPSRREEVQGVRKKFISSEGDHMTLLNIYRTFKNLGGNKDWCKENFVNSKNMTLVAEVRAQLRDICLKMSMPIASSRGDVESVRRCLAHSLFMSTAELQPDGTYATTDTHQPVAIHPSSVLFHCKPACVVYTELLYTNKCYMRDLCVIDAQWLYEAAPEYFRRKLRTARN
# UniProt Q9HCJ0: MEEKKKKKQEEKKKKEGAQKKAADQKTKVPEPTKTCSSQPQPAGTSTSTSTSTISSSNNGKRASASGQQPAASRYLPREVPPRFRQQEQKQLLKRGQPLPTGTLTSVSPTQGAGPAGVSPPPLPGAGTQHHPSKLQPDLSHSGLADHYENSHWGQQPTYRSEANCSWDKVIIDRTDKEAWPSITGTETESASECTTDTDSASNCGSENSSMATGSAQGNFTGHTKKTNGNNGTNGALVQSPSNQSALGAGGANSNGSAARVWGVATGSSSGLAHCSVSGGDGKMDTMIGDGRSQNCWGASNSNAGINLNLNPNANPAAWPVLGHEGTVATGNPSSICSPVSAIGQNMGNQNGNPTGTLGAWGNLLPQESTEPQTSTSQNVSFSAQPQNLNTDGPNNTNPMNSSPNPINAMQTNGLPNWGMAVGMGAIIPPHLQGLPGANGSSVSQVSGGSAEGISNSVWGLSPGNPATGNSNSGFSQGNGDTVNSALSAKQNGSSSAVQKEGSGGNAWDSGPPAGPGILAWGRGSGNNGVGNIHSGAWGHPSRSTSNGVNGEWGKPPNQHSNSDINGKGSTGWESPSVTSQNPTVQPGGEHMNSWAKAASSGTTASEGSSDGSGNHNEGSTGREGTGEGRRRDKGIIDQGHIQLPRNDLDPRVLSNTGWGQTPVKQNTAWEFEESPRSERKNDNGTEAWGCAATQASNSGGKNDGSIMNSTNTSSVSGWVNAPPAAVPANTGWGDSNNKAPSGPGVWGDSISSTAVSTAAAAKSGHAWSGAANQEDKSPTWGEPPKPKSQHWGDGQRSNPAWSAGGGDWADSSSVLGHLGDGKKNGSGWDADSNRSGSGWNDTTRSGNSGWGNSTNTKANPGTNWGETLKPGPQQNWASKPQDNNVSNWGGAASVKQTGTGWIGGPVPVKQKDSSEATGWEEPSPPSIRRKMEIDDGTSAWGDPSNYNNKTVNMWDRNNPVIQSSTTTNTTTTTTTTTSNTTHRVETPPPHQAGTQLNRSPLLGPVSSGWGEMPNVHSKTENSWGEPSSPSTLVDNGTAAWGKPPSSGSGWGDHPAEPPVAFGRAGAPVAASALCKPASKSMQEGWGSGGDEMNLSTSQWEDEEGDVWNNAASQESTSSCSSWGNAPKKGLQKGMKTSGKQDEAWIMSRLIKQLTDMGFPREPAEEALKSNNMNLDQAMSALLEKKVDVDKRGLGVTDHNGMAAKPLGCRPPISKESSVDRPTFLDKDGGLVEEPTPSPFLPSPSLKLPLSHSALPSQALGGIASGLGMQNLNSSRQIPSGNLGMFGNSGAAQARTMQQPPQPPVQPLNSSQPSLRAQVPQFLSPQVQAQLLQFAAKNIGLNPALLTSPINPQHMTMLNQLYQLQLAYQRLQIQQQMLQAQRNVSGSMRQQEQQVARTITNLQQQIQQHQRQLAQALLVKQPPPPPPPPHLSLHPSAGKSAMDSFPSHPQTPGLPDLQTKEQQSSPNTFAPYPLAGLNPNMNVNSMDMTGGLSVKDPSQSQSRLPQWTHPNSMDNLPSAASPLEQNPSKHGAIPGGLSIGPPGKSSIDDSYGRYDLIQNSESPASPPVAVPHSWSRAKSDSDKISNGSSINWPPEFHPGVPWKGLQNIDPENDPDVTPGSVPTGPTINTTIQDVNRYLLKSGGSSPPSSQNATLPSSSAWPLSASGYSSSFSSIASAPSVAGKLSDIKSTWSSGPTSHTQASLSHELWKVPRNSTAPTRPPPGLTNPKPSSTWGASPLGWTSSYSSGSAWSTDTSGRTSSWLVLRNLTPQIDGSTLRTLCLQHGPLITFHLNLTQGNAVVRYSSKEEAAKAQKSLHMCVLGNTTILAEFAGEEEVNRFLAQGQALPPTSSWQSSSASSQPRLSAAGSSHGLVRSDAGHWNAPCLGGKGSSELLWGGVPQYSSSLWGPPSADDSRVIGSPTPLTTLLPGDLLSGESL
# UniProt Q9H008: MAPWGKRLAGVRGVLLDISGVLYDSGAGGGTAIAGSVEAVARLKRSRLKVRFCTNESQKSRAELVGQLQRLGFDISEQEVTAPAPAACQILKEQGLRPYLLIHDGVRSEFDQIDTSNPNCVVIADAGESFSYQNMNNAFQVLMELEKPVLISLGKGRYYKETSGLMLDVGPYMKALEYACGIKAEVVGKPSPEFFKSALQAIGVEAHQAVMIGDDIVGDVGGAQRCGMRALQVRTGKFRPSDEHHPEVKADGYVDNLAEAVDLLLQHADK
# UniProt Q9H8Y5: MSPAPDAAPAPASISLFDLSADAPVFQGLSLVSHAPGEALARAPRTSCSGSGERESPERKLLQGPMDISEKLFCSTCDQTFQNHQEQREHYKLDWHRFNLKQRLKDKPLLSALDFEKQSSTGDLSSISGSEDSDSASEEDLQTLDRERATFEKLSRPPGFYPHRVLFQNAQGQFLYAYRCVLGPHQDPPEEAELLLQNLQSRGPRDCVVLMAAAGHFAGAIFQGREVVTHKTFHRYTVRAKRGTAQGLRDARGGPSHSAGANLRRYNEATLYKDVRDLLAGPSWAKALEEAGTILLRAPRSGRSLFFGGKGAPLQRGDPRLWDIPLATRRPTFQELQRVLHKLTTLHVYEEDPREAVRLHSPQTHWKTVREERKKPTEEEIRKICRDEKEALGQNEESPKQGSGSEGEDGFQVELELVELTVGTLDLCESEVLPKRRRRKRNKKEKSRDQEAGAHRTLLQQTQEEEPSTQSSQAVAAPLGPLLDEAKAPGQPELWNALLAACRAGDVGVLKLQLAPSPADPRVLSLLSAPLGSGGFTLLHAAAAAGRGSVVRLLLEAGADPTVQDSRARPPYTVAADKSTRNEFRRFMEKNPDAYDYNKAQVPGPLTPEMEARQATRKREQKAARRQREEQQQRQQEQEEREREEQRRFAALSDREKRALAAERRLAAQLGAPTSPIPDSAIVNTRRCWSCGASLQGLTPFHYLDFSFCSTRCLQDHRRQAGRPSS
# UniProt Q9HAT8: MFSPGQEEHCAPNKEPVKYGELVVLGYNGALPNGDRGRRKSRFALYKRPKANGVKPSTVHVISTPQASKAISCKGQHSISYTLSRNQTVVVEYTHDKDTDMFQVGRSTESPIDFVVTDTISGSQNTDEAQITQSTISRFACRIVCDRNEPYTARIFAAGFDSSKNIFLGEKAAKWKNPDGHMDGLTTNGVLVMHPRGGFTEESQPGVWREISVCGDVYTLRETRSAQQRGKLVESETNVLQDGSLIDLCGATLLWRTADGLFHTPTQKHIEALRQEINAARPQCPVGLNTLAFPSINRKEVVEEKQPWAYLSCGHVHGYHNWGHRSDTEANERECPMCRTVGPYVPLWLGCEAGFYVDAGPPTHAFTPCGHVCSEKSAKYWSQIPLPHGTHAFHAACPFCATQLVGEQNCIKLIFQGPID
# UniProt Q9H1B7, whole entry: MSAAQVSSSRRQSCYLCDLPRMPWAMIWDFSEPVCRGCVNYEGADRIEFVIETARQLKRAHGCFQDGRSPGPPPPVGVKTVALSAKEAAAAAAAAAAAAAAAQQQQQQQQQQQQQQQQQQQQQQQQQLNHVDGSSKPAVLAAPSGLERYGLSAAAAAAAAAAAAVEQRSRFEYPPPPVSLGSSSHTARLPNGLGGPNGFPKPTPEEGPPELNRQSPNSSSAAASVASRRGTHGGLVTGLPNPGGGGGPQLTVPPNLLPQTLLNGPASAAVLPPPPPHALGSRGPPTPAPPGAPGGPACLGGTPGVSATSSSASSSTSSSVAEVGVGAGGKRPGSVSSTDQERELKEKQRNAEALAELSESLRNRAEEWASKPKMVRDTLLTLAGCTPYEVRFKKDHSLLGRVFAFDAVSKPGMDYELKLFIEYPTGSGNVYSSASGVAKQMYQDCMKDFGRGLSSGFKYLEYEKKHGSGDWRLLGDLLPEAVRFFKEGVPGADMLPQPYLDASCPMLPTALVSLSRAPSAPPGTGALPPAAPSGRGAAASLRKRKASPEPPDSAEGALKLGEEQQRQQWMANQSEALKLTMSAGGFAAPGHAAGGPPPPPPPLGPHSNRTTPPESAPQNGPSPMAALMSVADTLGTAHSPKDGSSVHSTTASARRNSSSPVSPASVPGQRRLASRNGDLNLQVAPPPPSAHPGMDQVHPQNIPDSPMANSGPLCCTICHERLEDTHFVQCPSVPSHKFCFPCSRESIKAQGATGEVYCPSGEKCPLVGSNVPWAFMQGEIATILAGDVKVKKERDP
# UniProt Q9H425: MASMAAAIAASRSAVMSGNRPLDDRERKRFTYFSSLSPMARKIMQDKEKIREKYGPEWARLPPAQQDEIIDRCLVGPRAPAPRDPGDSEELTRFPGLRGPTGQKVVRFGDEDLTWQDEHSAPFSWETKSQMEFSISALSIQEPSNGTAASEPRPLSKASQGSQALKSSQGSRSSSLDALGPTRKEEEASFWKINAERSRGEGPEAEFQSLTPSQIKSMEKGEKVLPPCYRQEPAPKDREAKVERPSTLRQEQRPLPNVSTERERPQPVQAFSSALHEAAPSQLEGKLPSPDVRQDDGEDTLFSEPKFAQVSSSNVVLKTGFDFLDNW
# UniProt Q9NPG3, whole entry: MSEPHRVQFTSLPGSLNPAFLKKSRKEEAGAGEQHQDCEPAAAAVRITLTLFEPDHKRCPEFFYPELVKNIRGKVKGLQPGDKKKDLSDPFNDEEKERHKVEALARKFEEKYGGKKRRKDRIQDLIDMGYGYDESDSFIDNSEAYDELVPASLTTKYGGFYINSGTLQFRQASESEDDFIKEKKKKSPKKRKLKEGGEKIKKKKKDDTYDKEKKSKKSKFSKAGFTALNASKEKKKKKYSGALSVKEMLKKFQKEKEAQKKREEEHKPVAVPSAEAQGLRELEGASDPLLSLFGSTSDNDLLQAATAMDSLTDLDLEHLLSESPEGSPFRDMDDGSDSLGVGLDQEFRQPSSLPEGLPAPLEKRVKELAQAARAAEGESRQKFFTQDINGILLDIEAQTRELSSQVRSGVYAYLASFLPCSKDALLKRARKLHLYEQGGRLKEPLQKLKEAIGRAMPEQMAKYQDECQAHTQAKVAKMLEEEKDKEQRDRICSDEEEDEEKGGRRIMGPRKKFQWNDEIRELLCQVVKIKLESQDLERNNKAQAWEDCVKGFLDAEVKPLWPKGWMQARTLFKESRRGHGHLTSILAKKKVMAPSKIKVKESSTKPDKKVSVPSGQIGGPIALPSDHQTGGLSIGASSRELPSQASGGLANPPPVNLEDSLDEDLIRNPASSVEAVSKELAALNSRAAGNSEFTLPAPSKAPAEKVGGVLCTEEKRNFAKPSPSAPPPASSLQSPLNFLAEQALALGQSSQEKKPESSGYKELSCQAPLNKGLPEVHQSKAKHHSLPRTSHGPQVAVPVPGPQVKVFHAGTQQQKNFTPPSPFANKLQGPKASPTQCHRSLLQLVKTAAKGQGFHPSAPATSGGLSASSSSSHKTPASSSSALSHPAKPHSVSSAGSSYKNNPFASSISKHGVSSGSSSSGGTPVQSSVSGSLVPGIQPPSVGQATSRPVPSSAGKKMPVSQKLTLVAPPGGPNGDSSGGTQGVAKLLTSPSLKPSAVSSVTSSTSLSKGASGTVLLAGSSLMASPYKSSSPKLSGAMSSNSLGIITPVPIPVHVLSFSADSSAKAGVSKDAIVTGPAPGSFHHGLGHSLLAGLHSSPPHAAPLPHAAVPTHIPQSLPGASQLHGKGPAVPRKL
# ± gives the standard deviation of the averaged measurements. This is a selection; strong and weak results do not stand in their true shares.
# Compound: Nc1ncnc2c1ncn2[C@@H]1O[C@H](COP(=O)(O)OP(=O)(O)NP(=O)(O)O)[C@@H](O)[C@H]1O [adenylyl imidodiphosphate]
# Test: NP40-soluble protein abundance relative to vehicle (solubility fold change) (ratio); higher = more soluble protein in presence of AMP-PNP
# In short: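 Values are fold changes against the detergent-processed vehicle, based on vsn-normalised intensities. Jurkat crude lysate was treated at eight concentrations from 0.1 to 10 mM (10 min at room temperature, then 3 min at 37 °C), solubilised with 0.8% NP40 and benzonase, ultracentrifuged and analysed by TMT-labelled LC-MS/MS over three independent experiments.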
Target,NP40-soluble protein abundance (concentration: 1mM),NP40-soluble protein abundance (concentration: 2mM),NP40-soluble protein abundance (concentration: 4mM),NP40-soluble protein abundance (concentration: 6mM),NP40-soluble protein abundance (concentration: 8mM),NP40-soluble protein abundance (concentration: 10mM)
UniProt Q9H446 and related entries,1.01 ± 0.024,1.02 ± 0.041,1.01 ± 0.03,1.01 ± 0.028,0.971 ± 0.026,1.01 ± 0.017
UniProt Q9H3U1 and related entries,0.962 ± 0.011,0.9471 ± 0.0041,0.963 ± 0.017,0.927 ± 0.015,0.936 ± 0.02,0.915 ± 0.0094
PDF (UniProt Q9HBH1),1.01 ± 0.023,0.973 ± 0.083,1.003 ± 0.0095,1 ± 0.049,0.993 ± 0.024,1.01 ± 0.036
DHX33 (UniProt Q9H6R0),1.02 ± 0.023,1.06 ± 0.078,1.07 ± 0.082,1.12 ± 0.098,1.17 ± 0.12,1.18 ± 0.14
FAM117A (UniProt Q9C073),1.01 ± 0.009,1.02 ± 0.046,1.01 ± 0.022,0.983 ± 0.021,0.996 ± 0.03,0.962 ± 0.03
FN3KRP (UniProt Q9HA64),1.02 ± 0.019,0.989 ± 0.06,1.03 ± 0.02,0.991 ± 0.044,0.985 ± 0.032,0.986 ± 0.031
CPVL (UniProt Q9H3G5),0.996 ± 0.037,0.993 ± 0.081,0.998 ± 0.033,0.974 ± 0.051,1 ± 0.029,0.983 ± 0.059
UniProt Q9H1K0,0.992 ± 0.028,1.01 ± 0.02,1.01 ± 0.04,0.992 ± 0.021,0.972 ± 0.041,1.01 ± 0.051
UCK1 (UniProt Q9HA47),0.981 ± 0.029,1.01 ± 0.028,1.01 ± 0.011,1.02 ± 0.026,0.9745 ± 0.0089,1.01 ± 0.01
MRPL46 (UniProt Q9H2W6),0.981 ± 0.061,1.02 ± 0.036,1.007 ± 0.0099,0.938 ± 0.034,0.968 ± 0.065,0.928 ± 0.066
PLEKHA3 (UniProt Q9HB20),0.978 ± 0.02,0.968 ± 0.029,0.9578 ± 0.0019,0.967 ± 0.011,0.962 ± 0.029,0.956 ± 0.038
UniProt Q9H0W8 and related entries,1.05 ± 0.044,1.06 ± 0.044,1.02 ± 0.027,0.998 ± 0.031,1.02 ± 0.033,0.993 ± 0.052
RACGAP1 (UniProt Q9H0H5),1.018 ± 0.0086,1.07 ± 0.039,1.07 ± 0.013,1.087 ± 0.0077,1.07 ± 0.028,1.1 ± 0.044
UniProt Q9H8M2 and related entries,0.978 ± 0.01,1.02 ± 0.053,1.01 ± 0.042,0.979 ± 0.011,0.96 ± 0.041,0.993 ± 0.017
YTHDC2 (UniProt Q9H6S0),1.07 ± 0.039,1.08 ± 0.049,1.15 ± 0.022,1.18 ± 0.024,1.2 ± 0.033,1.193 ± 0.0055
UniProt Q9C0E8 and related entries,1.01 ± 0.062,1.06 ± 0.09,1.02 ± 0.055,1.01 ± 0.056,1.02 ± 0.052,1.06 ± 0.039
EHD1 (UniProt Q9H4M9),1.02 ± 0.02,1.03 ± 0.022,1.02 ± 0.024,0.934 ± 0.039,0.942 ± 0.058,0.935 ± 0.012
UniProt Q9H2U1 and related entries,1.044 ± 0.0074,1.01 ± 0.071,1.02 ± 0.02,1.04 ± 0.021,1.02 ± 0.039,1.03 ± 0.028
UniProt Q9NPB8 and related entries,1.01 ± 0.017,1.05 ± 0.034,1.02 ± 0.015,0.999 ± 0.033,0.9977 ± 0.0075,1.02 ± 0.019
UniProt Q9GZT8 and related entries,0.959 ± 0.022,0.923 ± 0.051,0.958 ± 0.017,0.983 ± 0.034,0.992 ± 0.032,0.956 ± 0.033

Target,NP40-soluble protein abundance (concentration: 1mM),NP40-soluble protein abundance (concentration: 2mM),NP40-soluble protein abundance (concentration: 4mM),NP40-soluble protein abundance (concentration: 6mM),NP40-soluble protein abundance (concentration: 8mM),NP40-soluble protein abundance (concentration: 10mM)
UniProt Q9H098 and related entries,0.975 ± 0.016,0.982 ± 0.096,0.942 ± 0.045,0.905 ± 0.051,0.852 ± 0.0097,0.857 ± 0.037
PCIF1 (UniProt Q9H4Z3),0.963 ± 0.029,0.9926 ± 0.0087,1.04 ± 0.065,1.1 ± 0.095,1.09 ± 0.046,1.11 ± 0.054
SEMA4C (UniProt Q9C0C4),0.988 ± 0.016,0.998 ± 0.055,0.981 ± 0.013,0.988 ± 0.028,0.995 ± 0.023,0.9883 ± 0.0093
UniProt Q9H4X1 and related entries,1.02 ± 0.029,1.03 ± 0.08,1.01 ± 0.026,1 ± 0.028,0.997 ± 0.03,0.976 ± 0.021
UniProt Q9H8Y8 and related entries,0.9802 ± 0.0083,1.03 ± 0.057,0.9419 ± 0.0071,0.9873 ± 0.0072,0.933 ± 0.022,0.978 ± 0.05
UniProt Q9HCJ0 and related entries,1.043 ± 0.0013,1.033 ± 0.0035,1.01 ± 0.013,1.01 ± 0.022,1 ± 0.016,1.02 ± 0.02
WDR55 (UniProt Q9H6Y2),1.06 ± 0.027,1.03 ± 0.061,1.07 ± 0.012,1.06 ± 0.024,1.07 ± 0.033,1.06 ± 0.039
LHPP (UniProt Q9H008),0.998 ± 0.048,0.973 ± 0.018,1.05 ± 0.014,1.06 ± 0.072,1.1 ± 0.031,1.07 ± 0.039
ILKAP (UniProt Q9H0C8),0.986 ± 0.022,0.976 ± 0.03,0.98 ± 0.034,0.991 ± 0.016,1.01 ± 0.021,0.983 ± 0.037
UniProt Q9GZS1-2,1.01 ± 0.024,1.02 ± 0.031,1.07 ± 0.023,1.06 ± 0.036,1.07 ± 0.041,1.08 ± 0.034
DMAP1 (UniProt Q9NPF5),1 ± 0.027,1.07 ± 0.028,1.02 ± 0.075,1.09 ± 0.09,1.05 ± 0.085,1.11 ± 0.092
UniProt Q9H3Z4 and related entries,1.02 ± 0.044,1.03 ± 0.018,1.02 ± 0.05,1.04 ± 0.021,1.019 ± 0.0084,1.05 ± 0.017
ANKZF1 (UniProt Q9H8Y5),0.995 ± 0.031,1.02 ± 0.043,0.998 ± 0.01,1.01 ± 0.016,0.999 ± 0.02,1.03 ± 0.058
UniProt Q9NP87,1.03 ± 0.063,1.02 ± 0.043,1.01 ± 0.055,1.02 ± 0.04,1.03 ± 0.071,1.01 ± 0.083
RANGRF (UniProt Q9HD47),1 ± 0.035,0.995 ± 0.044,1.02 ± 0.054,0.978 ± 0.031,1.01 ± 0.034,1 ± 0.021
TM6SF1 (UniProt Q9BZW5),0.9829 ± 0.007,0.964 ± 0.013,0.973 ± 0.055,0.974 ± 0.023,1.06 ± 0.014,0.984 ± 0.053
UniProt Q9GZQ3 and related entries,0.95419 ± 0.00078,0.9652 ± 0.0042,0.992 ± 0.041,1.01 ± 0.12,1.01 ± 0.04,0.979 ± 0.1
UniProt Q9H6K5 and related entries,1.02 ± 0.064,1.09 ± 0.15,1.05 ± 0.047,1.02 ± 0.029,0.994 ± 0.03,1 ± 0.014
UniProt Q9H903 and related entries,1.05 ± 0.024,1.04 ± 0.079,1.06 ± 0.075,1.11 ± 0.14,1.1 ± 0.11,1.06 ± 0.016
UniProt Q9H583 and related entries,0.998 ± 0.028,0.964 ± 0.037,1.04 ± 0.0078,1.02 ± 0.024,1.05 ± 0.044,1.07 ± 0.02

# Retrieved one by one from the list above:
Target,NP40-soluble protein abundance (concentration: 1mM),NP40-soluble protein abundance (concentration: 2mM),NP40-soluble protein abundance (concentration: 4mM),NP40-soluble protein abundance (concentration: 6mM),NP40-soluble protein abundance (concentration: 8mM),NP40-soluble protein abundance (concentration: 10mM)
LHPP (UniProt Q9H008),0.998 ± 0.048,0.973 ± 0.018,1.05 ± 0.014,1.06 ± 0.072,1.1 ± 0.031,1.07 ± 0.039
UniProt Q9HCJ0 and related entries,1.043 ± 0.0013,1.033 ± 0.0035,1.01 ± 0.013,1.01 ± 0.022,1 ± 0.016,1.02 ± 0.02

# Next part.

Target,NP40-soluble protein abundance (concentration: 1mM),NP40-soluble protein abundance (concentration: 2mM),NP40-soluble protein abundance (concentration: 4mM),NP40-soluble protein abundance (concentration: 6mM),NP40-soluble protein abundance (concentration: 8mM),NP40-soluble protein abundance (concentration: 10mM)
KLC2 (UniProt Q9H0B6),1.01 ± 0.038,1.03 ± 0.063,1.02 ± 0.033,1.02 ± 0.019,0.9984 ± 0.0094,1.02 ± 0.019
PELI2 (UniProt Q9HAT8),1.01 ± 0.022,0.979 ± 0.065,1.02 ± 0.051,0.986 ± 0.04,1.01 ± 0.03,0.99 ± 0.019
GAN (UniProt Q9H2C0),0.9934 ± 0.0056,0.968 ± 0.012,0.976 ± 0.047,0.951 ± 0.016,0.926 ± 0.02,0.929 ± 0.021
PARP12 (UniProt Q9H0J9),0.982 ± 0.046,0.946 ± 0.042,1.01 ± 0.022,0.991 ± 0.015,1.04 ± 0.029,1.01 ± 0.023
UniProt Q9H3H1 and related entries,1.14 ± 0.14,1.12 ± 0.16,1.04 ± 0.085,1.06 ± 0.27,0.975 ± 0.099,1.01 ± 0.088
UniProt Q9H1B7,1.02 ± 0.012,1.05 ± 0.071,1.03 ± 0.016,1.015 ± 0.0057,1 ± 0.013,1.01 ± 0.031
PPCS (UniProt Q9HAB8),1.03 ± 0.033,0.981 ± 0.038,1.01 ± 0.028,1.03 ± 0.02,1.03 ± 0.026,1.04 ± 0.021
UniProt Q9GZP4,1.01 ± 0.035,0.989 ± 0.073,0.991 ± 0.031,1.008 ± 0.0089,1.01 ± 0.027,0.993 ± 0.036
UniProt Q9NPA0,0.954 ± 0.045,0.934 ± 0.027,0.986 ± 0.062,1.04 ± 0.065,1.07 ± 0.059,1.07 ± 0.032
ADNP (UniProt Q9H2P0),1.03 ± 0.022,1.06 ± 0.011,1.08 ± 0.039,1.1 ± 0.062,1.13 ± 0.083,1.16 ± 0.072
GTPBP4 (UniProt Q9BZE4),1.04 ± 0.061,1.03 ± 0.027,1.08 ± 0.059,1.07 ± 0.064,1.05 ± 0.054,1.09 ± 0.1
SFXN1 (UniProt Q9H9B4),0.986 ± 0.018,0.959 ± 0.0066,0.982 ± 0.035,0.977 ± 0.029,0.983 ± 0.029,0.97 ± 0.03
UniProt Q9H1Z4 and related entries,0.9915 ± 0.0073,0.987 ± 0.041,1.03 ± 0.028,0.981 ± 0.06,1.01 ± 0.03,1.01 ± 0.089
UniProt Q9H425 and related entries,1.05 ± 0.017,1.06 ± 0.017,1.04 ± 0.029,1.02 ± 0.057,0.98 ± 0.03,0.995 ± 0.018
UniProt Q9NPG3 and related entries,1.01 ± 0.013,1.05 ± 0.037,1.07 ± 0.021,1.06 ± 0.034,1.06 ± 0.022,1.09 ± 0.067
UniProt Q9BZE9 and related entries,1.01 ± 0.025,1.04 ± 0.028,1.01 ± 0.034,0.987 ± 0.048,0.962 ± 0.032,0.979 ± 0.05
UniProt Q9HCM1,0.991 ± 0.015,1.02 ± 0.036,1 ± 0.062,0.976 ± 0.03,0.966 ± 0.031,0.984 ± 0.054
WDR12 (UniProt Q9GZL7),0.997 ± 0.017,0.928 ± 0.082,0.979 ± 0.011,1 ± 0.028,0.999 ± 0.016,0.94 ± 0.033
Q9NPA5 and related entries (UniProt Q9NTW7),1.002 ± 0.0087,0.975 ± 0.023,0.981 ± 0.017,0.983 ± 0.027,0.97 ± 0.017,0.974 ± 0.035
XRN2 (UniProt Q9H0D6),0.997 ± 0.029,1.01 ± 0.027,0.992 ± 0.037,1.02 ± 0.04,0.995 ± 0.043,1.02 ± 0.036
